In the supplement of paper PMC10849652:
Some of the results follow.

Chains of the proteins cited; added tags and fusions are not shown. Lines headed by an entry give the natural chain unless they say otherwise; changes in a name come on top.
UniProt Q96P16: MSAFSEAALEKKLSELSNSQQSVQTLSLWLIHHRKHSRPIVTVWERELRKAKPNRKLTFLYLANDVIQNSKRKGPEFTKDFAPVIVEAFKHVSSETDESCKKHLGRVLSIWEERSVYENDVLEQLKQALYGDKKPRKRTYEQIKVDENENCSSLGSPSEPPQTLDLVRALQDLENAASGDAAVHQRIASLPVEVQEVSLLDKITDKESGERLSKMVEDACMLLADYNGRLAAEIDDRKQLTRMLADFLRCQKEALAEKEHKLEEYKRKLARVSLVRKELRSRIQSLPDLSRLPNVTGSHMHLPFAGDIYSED
UniProt Q15287: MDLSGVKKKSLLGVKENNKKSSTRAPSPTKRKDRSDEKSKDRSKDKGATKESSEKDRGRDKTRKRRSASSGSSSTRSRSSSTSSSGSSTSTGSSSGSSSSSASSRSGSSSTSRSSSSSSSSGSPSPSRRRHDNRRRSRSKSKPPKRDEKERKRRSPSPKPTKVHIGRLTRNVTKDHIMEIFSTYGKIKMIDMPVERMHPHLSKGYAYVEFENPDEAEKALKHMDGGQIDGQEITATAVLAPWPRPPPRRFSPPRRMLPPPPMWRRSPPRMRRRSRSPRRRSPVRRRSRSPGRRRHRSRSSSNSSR
UniProt Q92834: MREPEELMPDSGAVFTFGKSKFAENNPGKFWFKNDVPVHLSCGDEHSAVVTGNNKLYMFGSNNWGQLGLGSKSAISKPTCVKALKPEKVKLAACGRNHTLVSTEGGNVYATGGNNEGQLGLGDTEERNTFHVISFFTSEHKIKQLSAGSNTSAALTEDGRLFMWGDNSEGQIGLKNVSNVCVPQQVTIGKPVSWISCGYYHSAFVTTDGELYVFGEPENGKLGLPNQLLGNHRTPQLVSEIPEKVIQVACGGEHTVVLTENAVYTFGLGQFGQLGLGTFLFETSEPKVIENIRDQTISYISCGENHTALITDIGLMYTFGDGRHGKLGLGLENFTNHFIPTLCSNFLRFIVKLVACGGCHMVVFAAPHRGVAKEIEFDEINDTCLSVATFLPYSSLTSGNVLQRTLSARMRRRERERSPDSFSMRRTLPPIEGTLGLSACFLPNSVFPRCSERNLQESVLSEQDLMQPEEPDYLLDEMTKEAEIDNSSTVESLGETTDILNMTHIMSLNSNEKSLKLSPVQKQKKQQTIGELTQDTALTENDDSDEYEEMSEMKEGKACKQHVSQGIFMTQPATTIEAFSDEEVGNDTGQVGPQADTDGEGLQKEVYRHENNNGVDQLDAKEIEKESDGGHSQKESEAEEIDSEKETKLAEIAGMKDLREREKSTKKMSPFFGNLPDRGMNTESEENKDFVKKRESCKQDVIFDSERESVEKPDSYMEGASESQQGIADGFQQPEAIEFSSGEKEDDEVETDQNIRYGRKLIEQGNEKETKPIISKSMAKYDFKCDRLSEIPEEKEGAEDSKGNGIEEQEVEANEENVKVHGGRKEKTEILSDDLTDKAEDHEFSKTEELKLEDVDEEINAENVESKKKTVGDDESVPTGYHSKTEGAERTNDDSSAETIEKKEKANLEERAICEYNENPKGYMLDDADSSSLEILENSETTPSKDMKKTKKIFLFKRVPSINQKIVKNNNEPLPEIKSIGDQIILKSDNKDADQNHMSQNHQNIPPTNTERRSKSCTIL
UniProt Q9UBS0: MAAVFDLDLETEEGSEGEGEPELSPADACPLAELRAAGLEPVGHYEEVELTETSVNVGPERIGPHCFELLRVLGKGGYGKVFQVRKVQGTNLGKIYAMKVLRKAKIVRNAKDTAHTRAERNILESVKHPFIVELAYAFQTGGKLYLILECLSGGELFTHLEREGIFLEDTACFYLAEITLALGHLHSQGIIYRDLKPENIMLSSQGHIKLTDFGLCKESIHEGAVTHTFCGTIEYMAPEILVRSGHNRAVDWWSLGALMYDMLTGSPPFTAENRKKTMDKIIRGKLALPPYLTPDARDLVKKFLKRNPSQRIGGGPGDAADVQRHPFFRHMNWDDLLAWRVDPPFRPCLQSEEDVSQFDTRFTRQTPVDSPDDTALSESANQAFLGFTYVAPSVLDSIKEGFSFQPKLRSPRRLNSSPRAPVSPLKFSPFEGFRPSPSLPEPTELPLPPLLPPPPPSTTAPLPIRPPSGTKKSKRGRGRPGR
UniProt P78345: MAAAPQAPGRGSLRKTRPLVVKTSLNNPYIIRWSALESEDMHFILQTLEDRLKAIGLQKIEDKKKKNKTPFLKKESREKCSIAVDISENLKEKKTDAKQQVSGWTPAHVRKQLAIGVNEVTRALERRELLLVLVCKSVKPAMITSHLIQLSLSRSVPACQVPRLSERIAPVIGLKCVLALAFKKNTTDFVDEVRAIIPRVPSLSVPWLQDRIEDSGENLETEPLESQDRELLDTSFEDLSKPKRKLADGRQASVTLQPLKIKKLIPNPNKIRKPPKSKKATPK
UniProt Q01974, whole entry, looked up: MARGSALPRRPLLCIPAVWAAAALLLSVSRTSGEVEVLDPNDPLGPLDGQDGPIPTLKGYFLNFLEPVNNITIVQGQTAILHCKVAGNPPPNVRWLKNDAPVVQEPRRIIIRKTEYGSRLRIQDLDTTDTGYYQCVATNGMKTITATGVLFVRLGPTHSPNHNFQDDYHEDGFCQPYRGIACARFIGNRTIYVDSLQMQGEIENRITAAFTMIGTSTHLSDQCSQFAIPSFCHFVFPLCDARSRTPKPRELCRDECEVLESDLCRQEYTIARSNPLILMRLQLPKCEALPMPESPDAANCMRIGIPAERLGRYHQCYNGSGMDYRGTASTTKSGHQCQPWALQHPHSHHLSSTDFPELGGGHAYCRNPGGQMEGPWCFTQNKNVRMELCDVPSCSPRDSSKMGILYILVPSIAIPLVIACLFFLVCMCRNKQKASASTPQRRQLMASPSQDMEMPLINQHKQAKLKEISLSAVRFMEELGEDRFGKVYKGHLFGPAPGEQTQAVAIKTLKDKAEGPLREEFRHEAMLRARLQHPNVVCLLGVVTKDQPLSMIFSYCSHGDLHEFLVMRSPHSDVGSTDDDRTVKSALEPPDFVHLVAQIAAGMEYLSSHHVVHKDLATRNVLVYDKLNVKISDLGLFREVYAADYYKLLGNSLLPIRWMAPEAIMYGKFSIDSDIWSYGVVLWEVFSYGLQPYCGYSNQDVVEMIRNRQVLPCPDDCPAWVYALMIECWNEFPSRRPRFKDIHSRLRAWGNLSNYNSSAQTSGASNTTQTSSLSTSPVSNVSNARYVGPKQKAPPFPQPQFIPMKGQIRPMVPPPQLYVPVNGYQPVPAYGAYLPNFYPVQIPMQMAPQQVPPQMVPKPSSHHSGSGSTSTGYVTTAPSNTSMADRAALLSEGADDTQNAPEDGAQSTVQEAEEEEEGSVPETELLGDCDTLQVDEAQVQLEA
UniProt Q9UBF6, whole entry, looked up: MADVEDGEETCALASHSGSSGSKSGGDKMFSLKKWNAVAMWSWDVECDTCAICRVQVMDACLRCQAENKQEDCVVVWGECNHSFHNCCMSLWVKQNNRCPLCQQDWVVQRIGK
UniProt Q5VT52: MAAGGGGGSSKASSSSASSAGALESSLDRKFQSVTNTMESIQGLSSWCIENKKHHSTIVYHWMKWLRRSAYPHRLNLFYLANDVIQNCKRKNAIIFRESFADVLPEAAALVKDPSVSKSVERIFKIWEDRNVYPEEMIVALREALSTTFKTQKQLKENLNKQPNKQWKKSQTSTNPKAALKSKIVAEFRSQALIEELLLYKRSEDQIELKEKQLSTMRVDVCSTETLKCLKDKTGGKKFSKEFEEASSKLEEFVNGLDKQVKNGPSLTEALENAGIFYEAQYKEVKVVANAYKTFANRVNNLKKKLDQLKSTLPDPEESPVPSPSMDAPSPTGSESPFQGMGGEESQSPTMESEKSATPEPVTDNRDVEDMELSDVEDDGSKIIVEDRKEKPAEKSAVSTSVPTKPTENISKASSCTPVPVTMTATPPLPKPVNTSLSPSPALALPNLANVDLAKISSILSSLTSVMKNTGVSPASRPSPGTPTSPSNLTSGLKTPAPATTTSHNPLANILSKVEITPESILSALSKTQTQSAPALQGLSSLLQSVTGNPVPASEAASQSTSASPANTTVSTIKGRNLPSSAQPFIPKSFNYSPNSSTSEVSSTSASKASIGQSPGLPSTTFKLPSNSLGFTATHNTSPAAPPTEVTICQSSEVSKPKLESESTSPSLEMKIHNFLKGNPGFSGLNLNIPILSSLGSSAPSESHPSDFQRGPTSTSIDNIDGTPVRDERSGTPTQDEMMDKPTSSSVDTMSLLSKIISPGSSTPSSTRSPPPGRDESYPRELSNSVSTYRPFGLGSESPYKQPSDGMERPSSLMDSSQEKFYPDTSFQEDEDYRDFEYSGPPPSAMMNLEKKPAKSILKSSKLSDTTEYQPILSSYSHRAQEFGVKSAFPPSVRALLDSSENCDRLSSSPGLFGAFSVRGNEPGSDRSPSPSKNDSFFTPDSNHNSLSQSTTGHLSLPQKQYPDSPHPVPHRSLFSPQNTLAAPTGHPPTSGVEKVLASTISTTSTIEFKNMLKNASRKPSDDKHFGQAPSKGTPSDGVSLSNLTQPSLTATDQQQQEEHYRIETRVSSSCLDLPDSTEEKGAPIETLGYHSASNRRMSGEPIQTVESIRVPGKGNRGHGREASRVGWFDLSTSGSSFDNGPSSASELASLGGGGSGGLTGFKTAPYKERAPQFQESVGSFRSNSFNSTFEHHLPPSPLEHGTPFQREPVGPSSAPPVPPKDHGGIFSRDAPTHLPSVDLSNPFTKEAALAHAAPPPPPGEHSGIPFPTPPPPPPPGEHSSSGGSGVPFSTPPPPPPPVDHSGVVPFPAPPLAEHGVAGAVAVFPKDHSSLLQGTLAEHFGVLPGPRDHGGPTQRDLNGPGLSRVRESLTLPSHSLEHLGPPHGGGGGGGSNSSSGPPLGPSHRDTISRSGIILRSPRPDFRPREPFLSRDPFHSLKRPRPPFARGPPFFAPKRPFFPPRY
UniProt Q9BY78: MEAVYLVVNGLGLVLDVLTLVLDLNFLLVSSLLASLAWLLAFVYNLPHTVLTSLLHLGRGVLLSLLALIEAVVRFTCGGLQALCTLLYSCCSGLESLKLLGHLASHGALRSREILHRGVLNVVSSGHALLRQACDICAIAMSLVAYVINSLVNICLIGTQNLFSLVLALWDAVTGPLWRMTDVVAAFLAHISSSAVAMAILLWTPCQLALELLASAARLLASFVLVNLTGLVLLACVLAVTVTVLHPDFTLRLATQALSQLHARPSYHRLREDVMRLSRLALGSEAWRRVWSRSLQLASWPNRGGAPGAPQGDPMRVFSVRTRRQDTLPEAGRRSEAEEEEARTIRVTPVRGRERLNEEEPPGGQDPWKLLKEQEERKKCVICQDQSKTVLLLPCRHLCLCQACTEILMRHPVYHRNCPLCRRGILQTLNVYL
UniProt Q7LG56, whole entry, looked up: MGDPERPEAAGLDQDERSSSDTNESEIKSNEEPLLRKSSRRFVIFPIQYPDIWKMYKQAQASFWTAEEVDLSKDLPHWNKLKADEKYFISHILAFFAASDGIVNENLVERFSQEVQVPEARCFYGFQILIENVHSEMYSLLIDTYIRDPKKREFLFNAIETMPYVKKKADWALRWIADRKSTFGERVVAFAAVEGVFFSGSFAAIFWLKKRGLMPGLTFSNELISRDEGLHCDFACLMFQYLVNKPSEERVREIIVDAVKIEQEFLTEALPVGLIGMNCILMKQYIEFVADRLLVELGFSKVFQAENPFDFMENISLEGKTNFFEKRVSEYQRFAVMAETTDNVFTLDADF
UniProt Q86WX3: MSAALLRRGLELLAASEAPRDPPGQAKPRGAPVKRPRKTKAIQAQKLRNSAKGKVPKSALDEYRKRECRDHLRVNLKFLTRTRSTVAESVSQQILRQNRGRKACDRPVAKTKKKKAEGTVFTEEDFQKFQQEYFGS
UniProt P60602: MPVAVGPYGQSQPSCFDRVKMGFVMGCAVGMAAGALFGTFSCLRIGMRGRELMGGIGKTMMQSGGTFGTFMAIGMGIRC
UniProt Q9Y225: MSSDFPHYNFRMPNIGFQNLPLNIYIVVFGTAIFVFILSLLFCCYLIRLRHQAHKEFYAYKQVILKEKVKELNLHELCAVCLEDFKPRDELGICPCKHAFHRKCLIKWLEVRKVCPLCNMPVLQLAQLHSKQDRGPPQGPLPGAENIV
UniProt Q9GZN7, whole entry, looked up: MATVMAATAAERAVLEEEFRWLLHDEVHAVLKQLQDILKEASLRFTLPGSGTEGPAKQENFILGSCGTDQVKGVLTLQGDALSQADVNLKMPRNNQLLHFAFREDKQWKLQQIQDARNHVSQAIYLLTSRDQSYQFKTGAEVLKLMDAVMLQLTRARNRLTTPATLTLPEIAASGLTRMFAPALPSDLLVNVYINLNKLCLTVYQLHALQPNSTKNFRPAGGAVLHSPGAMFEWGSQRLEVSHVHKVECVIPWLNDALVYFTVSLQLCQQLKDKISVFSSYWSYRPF
UniProt P62070: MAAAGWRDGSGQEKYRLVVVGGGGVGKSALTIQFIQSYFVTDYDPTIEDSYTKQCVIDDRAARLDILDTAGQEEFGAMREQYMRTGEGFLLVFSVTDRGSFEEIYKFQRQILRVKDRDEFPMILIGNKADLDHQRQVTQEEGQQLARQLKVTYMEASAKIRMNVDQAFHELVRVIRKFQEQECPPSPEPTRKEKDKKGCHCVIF

Assays:
Experiment in all cases: log2 fold change, soluble protein after heating vs DMSO (PISA); higher = thermal stabilisation; K562 cells, 10 uM, 30 min; active = over 0.2 and 3.5 SD of the protein, either way, in both replicates (recomputed)
[1] = compound: C1=CC=C(C=C1)[C@H](COC2=CC3=C(C=C2)NC(=O)N3)NC(=O)C4=CC=CN(C4=O)CC5=CC(=C(C=C5)F)F
How it was run: (§1)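 K562 cells at 2×10^6 cells/mL were exposed to 10 μM compound for 30 min, then aliquots were heated for 3 min across 48°C-58°C, pooled, and extracted in PBS containing 0.5% NP-40 at 4°C. The supernatant after 21,000xg for 90 min was taken as soluble protein and measured by TMTpro 16plex LC-MS/MS with channel sums equalised. Thermal stability is reported relative to control samples, with values from duplicates. Fold changes are given on a log2 scale.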

[2] = compound: CC1=C(SC2=C1C(=N[C@H](C3=NN=C(N32)C)CC(=O)N)C4=CC=C(C=C4)Cl)C
How it was run: as §1

[3] = compound: CC1=C2C(=CC=C1)N=C(N(C2=O)C3=CC=CC=C3C)CN4C=NC5=C(N=CN=C54)N
How it was run: as §1

[4] = compound: Cc1sc2c(c1C)C(c1ccc(Cl)cc1)=N[C@@H](CC(=O)OC(C)(C)C)c1nnc(C)n1-2
How it was run: as §1

[5] = compound: c1ccc([C@@H]2C[C@H]2NC2CCNCC2)cc1
How it was run: as §1

Measured: log2 fold change

RPL19 (UniProt P84098)
inactive: [1] 0.128 | [2] -0.311 | [3] -0.428 | [4] 0.208 | [5] -0.009

RPS9 (UniProt P46781)
inactive: [1] 0.073 | [2] -0.19 | [3] -0.24 | [4] 0.134 | [5] 0

RPAP2 (UniProt Q8IXW5)
inactive: [2] 0.052 | [4] 0.001 | [5] -0.119

RPRD1A (UniProt Q96P16)
inactive: [3] 0.064 | [4] -0.2

RNPS1 (UniProt Q15287)
inactive: [1] -0.019 | [2] 0.001 | [3] 0.032 | [4] 0.119 | [5] 0.061

RPL23 (UniProt P62829)
inactive: [1] 0.09 | [2] -0.183 | [3] -0.143 | [4] 0.173 | [5] 0

RPLP0 (UniProt F8VWV4)
inactive: [2] -0.134 | [4] 0.329 | [5] 0.024

RPL5 (UniProt P46777)
inactive: [1] 0.071 | [2] -0.234 | [3] -0.195 | [4] 0.115 | [5] 0

RPGR (UniProt Q92834)
inactive: [4] -0.022

RPS6KB2 (UniProt Q9UBS0)
inactive: [2] -0.017 | [4] 0.229 | [5] 0.167

RPS7, A0A2R8Y623
inactive: [1] -0.009 | [3] -0.965 | [4] -0.475

RPS3 (UniProt E9PJN9)
inactive: [4] 0.141

RPS16 (UniProt P62249)
inactive: [1] 0.049 | [2] -0.149 | [3] -0.192 | [4] 0.043 | [5] -0.003

RPL7L1 (UniProt Q6DKI1)
inactive: [1] 0.088 | [3] -0.072

RPP38 (UniProt P78345)
inactive: [1] -0.008 | [2] -0.039 | [3] 0.028 | [4] 0.044 | [5] 0.046

RPS24 isoform 4 (UniProt P62847)
inactive: [1] 0.116 | [2] -0.215 | [3] -0.196 | [4] 0.145 | [5] 0.023

ROR2 (UniProt Q01974)
inactive: [1] -0.062 | [2] 0.004 | [3] 0.023 | [4] -0.048 | [5] -0.035

RPS19 (UniProt M0R2L9)
inactive: [4] 0.183

Reprinted at random: 2 entries already listed.
RPL7L1 (UniProt Q6DKI1)
inactive: [1] 0.088 | [3] -0.072

RPS6KB2 (UniProt Q9UBS0)
inactive: [2] -0.017 | [4] 0.229 | [5] 0.167

Next entries:

RNF7 (UniProt Q9UBF6)
inactive: [1] -0.062 | [2] -0.021 | [3] 0.009 | [4] -0.024 | [5] 0.005

RPL24 (UniProt P83731)
inactive: [1] 0.098 | [2] -0.37 | [3] -0.406 | [4] 0.227 | [5] 0

RPS3A (UniProt D6R9B6)
inactive: [4] 0.248

RPRD2 (UniProt Q5VT52)
inactive: [1] -0.364 | [3] 0.019 | [4] 0.085

RNF31 (UniProt Q96EP0)
inactive: [3] 0.095 | [4] 0.155

RPS26 (UniProt P62854)
inactive: [1] 0.177 | [2] -0.413 | [3] -0.37 | [4] 0.21 | [5] 0

RNF26 (UniProt Q9BY78)
inactive: [1] 0.005 | [3] -0.104

RRM2B isoform 6 (UniProt Q7LG56)
inactive: [1] 0.01 | [2] 0.05 | [3] 0.056 | [4] -0.054 | [5] 0.032

RPS19BP1 (UniProt Q86WX3)
inactive: [1] 0.007 | [2] -0.258 | [3] -0.118 | [4] 0.111 | [5] 0.004

ROMO1 (UniProt P60602)
inactive: [1] 0.045 | [2] -0.061 | [4] 0.172 | [5] 0.082

ROCK1 (UniProt Q13464)
inactive: [1] -0.017 | [2] 0.027 | [3] 0.032 | [4] -0.018 | [5] -0.015

RNF24 isoform 2 (UniProt Q9Y225)
inactive: [1] -0.118 | [3] -0.324

ROGDI (UniProt Q9GZN7)
inactive: [2] 0.033 | [5] -0.125

RPS29 (UniProt P62273)
inactive: [1] 0.053 | [2] -0.309 | [3] -0.185 | [4] 0.109 | [5] -0.058

RP9 (UniProt Q8TA86)
inactive: [1] 0.117 | [2] -0.102 | [4] 0.094 | [5] -0.031

RRAS2 isoform 4 (UniProt P62070)
inactive: [1] 0.045 | [2] -0.017 | [3] -0.062 | [4] -0.03 | [5] 0.011
